Values from PubChem BioAssay AID1671195 (Yale University, 2021)
Here is one part, drawn at random, of about 22,000 deposited reagents. Over the whole deposit, about 1,510 (6.9%) got an active call. 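Active includes knockdowns raising or lowering LDL uptake; positive z-scores mean more uptake, negative mean less.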 No sequences are given here.

- Test: 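Knockdowns that increase or decrease uptake of fluorescent LDL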 (primary screen)
- System: human Huh7 hepatoma cells
- Knock-down reagent: siRNA pool against human genes, 18 nM
- Timing: about 2 to 2.5 days of knockdown, then 8 h LDL uptake
- Treatment: DiI-labelled LDL at 30 µg/ml for 8 h, in lipoprotein-deficient serum medium
- Detection: 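Per-cell DiI-LDL intensity by automated imaging; well means scaled to the plate median and given as a robust z-score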
- Direction: robust z-score: higher = more LDL uptake after knockdown
- Rule for the call: 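a gene counts as active if at least two replicate z-scores exceed ±2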

| target | robust z-score, replicate 1 | robust z-score, replicate 2 | robust z-score, replicate 3 | outcome |
| --- | --- | --- | --- | --- |
| CCN4 (GeneID 8840) | 2.57 | 0.818 | 1.71 | inactive |
| LY6G6C (GeneID 80740) | -0.422 | 0.0175 | -0.00489 | inactive |
| OR52I1 (GeneID 390037) | 0.108 | -0.267 | -0.212 | inactive |
| GET1P1 (GeneID 256085) | -1.34 | -1.55 | -1.5 | inactive |
| SLC10A6 (GeneID 345274) | -1.73 | -0.924 | -0.97 | inactive |
| ACTR1A (GeneID 10121) | -1.03 | -1.31 | -0.297 | inactive |
| PRSS48 (GeneID 345062) | -1.1 | -0.983 | -0.98 | inactive |
| ADM (GeneID 133) | -0.743 | -0.285 | -1.28 | inactive |
| PLP1 (GeneID 5354) | 0.772 | -0.0479 | 0.851 | inactive |
| LOC440484 (retired record) (GeneID 440484) | 3.69 | 4.02 | 3.41 | active |
| CDK9 (GeneID 1025) | -0.551 | 0.345 | 0.6 | inactive |
| ZNF580 (GeneID 51157) | 1.45 | 1.04 | 1.96 | inactive |
| HERPUD1 (GeneID 9709) | -1.1 | -1.7 | -2.24 | active |
| CA15P2 (GeneID 440795) | -0.32 | -0.638 | -0.334 | inactive |
| MGST2 (GeneID 4258) | 1.97 | 1.56 | 2.7 | active |
| GLYR1 (GeneID 84656) | 0.278 | 0.0919 | 0.687 | inactive |
| ALOX5AP (GeneID 241) | -0.503 | -0.271 | -1.26 | inactive |
| STOX2 (GeneID 56977) | -0.23 | 0.211 | -0.285 | inactive |
| LOC440705 (retired record) (GeneID 440705) | 1 | 1.42 | 1.79 | inactive |
| ZNF574 (GeneID 64763) | -1.21 | -1.65 | -1.47 | inactive |
| HSH2D (GeneID 84941) | -1.46 | -1.95 | -2 | inactive |
| SLC43A2 (GeneID 124935) | 0.313 | 1.54 | -0.101 | inactive |
| CSMD1 (GeneID 64478) | 0.725 | 1.02 | 0.442 | inactive |
| H2BC8 (GeneID 8339) | 2.16 | 0.0697 | 1.13 | inactive |
| SCNN1A (GeneID 6337) | -0.131 | -0.648 | -0.51 | inactive |
| PPIL3 (GeneID 53938) | -2.2 | -2.43 | -2.1 | active |
| SAR1A (GeneID 56681) | -0.799 | 1.13 | 0.109 | inactive |
| VEGFA (GeneID 7422) | 0.284 | -0.876 | -1.23 | inactive |
| BARHL2 (GeneID 343472) | 0.498 | 0.965 | 1.4 | inactive |
| TARS2 (GeneID 80222) | -1.19 | -1.17 | -1.14 | inactive |
| QDPR (GeneID 5860) | 1.32 | -0.0131 | 1.63 | inactive |
| VAMP2 (GeneID 6844) | -0.0344 | -0.00052 | -0.142 | inactive |
| FLNC (GeneID 2318) | -0.796 | -0.702 | -0.989 | inactive |
| SLC16A10 (GeneID 117247) | -0.227 | -0.0589 | -0.456 | inactive |
| ADCK1 (GeneID 57143) | 3.14 | 3.64 | 3.14 | active |
| KLHL40 (GeneID 131377) | 0.65 | 2.23 | 1.92 | active |
| MTERF4 (GeneID 130916) | -1.14 | 0.176 | -0.418 | inactive |
| FAM13A (GeneID 10144) | 0.37 | -0.603 | -0.147 | inactive |
| POLR3G (GeneID 10622) | 0.38 | 1.83 | 1.36 | inactive |
| ATG9A (GeneID 79065) | 0.973 | 0.728 | 1.14 | inactive |
| AP5S1 (GeneID 55317) | -0.944 | 1.33 | 0.0494 | inactive |
| SUCNR1 (GeneID 56670) | 1.08 | -0.732 | 1.81 | inactive |
| OLA1 (GeneID 29789) | 0.352 | 2.22 | 0.906 | inactive |
| RNF138 (GeneID 51444) | 0.834 | 1.09 | 1.57 | inactive |
| LOC441769 (retired record) (GeneID 441769) | -0.189 | -0.334 | 0.0835 | inactive |
| ZSCAN5B (GeneID 342933) | -0.523 | -0.506 | -0.376 | inactive |
| ERVFRD-1 (GeneID 405754) | 1.41 | 1.6 | 2.69 | inactive |
| CCAR2 (GeneID 57805) | -0.738 | -0.658 | 0.361 | inactive |
| PCDHA2 (GeneID 56146) | -0.00937 | 0.0834 | -0.458 | inactive |
| LOC389055 (retired record) (GeneID 389055) | 0.529 | 0.434 | 0.18 | inactive |
| FAAP100 (GeneID 80233) | 0.335 | 0.486 | 0.299 | inactive |
| SMARCAL1 (GeneID 50485) | -0.749 | -1.05 | -1.07 | inactive |
| DMGDH (GeneID 29958) | 1.38 | 1.16 | 1.94 | inactive |
| LINC01270 (GeneID 284751) | 7.05 | 7.19 | 5.9 | active |
| CADM3 (GeneID 57863) | -0.363 | 0.858 | 1.42 | inactive |
| TPRKB (GeneID 51002) | -0.855 | -1.64 | -1.25 | inactive |
| NCBP2L (GeneID 392517) | -1.41 | -0.00573 | -0.21 | inactive |
| C3orf22 (GeneID 152065) | -0.588 | -0.214 | -0.532 | inactive |
| CDK10 (GeneID 8558) | 1.3 | 0.754 | 1.81 | inactive |
| WNT5B (GeneID 81029) | -0.924 | -0.322 | -0.369 | inactive |
| DPP10 (GeneID 57628) | -1.38 | -1.2 | -1.4 | inactive |
| SPRR1B (GeneID 6699) | 1.51 | 4.75 | 2.6 | active |
| CYP4F11 (GeneID 57834) | -1.48 | -1.31 | -1.14 | inactive |
| CHCHD2P10 (GeneID 392221) | -1.12 | -1.03 | -0.733 | inactive |
| AP2B1 (GeneID 163) | -1.22 | -0.66 | -0.925 | inactive |
| HEMK2 (GeneID 29104) | -0.859 | -0.302 | -1.26 | inactive |
| CSF1 (GeneID 1435) | -0.533 | 0.777 | -0.344 | inactive |
| ERI2 (GeneID 112479) | 0.937 | 1.27 | 2.03 | inactive |
| LOC400940 (GeneID 400940) | 1.44 | 1.55 | 2.29 | inactive |
| PEX13 (GeneID 5194) | -0.712 | -0.276 | -2.16 | inactive |
| LRRN1 (GeneID 57633) | 0.39 | -0.0126 | -0.0813 | inactive |
| HSD17B2 (GeneID 3294) | 0.318 | -0.552 | 0.401 | inactive |
| ACVR1 (GeneID 90) | -0.459 | -0.492 | -1.42 | inactive |
| ELP4 (GeneID 26610) | -0.363 | -0.427 | -1.05 | inactive |
| MSRB1 (GeneID 51734) | -1.06 | -1.78 | -1.13 | inactive |
| LRP4 (GeneID 4038) | 0.201 | 0.671 | 0.15 | inactive |
| CXCL2 (GeneID 2920) | 0.0992 | 0.18 | 0.263 | inactive |
| PARP12 (GeneID 64761) | -0.796 | -0.719 | 0.493 | inactive |
| MUCL3 (GeneID 135656) | 2.39 | 2.71 | 1.62 | active |
| LARP1B (GeneID 55132) | -1.57 | -0.427 | -1.25 | inactive |
| RSPO2 (GeneID 340419) | 4.73 | 5.33 | 5.03 | active |
| LOC440372 (retired record) (GeneID 440372) | 0.975 | 0.554 | 0.6 | inactive |
| SERBP1 (GeneID 26135) | 0.979 | 0.652 | 0.446 | inactive |
| ARMCX2 (GeneID 9823) | 2.24 | 1.93 | 2.02 | active |
| NAIF1 (GeneID 203245) | 0.254 | 0.124 | 0.287 | inactive |
| HAUS8 (GeneID 93323) | -0.873 | -0.584 | -0.525 | inactive |
| GPD1 (GeneID 2819) | -2.38 | -1.98 | -2.41 | active |

Sorted by “robust z-score, replicate 2” (highest first): some entries from above
| target | robust z-score, replicate 1 | robust z-score, replicate 2 | robust z-score, replicate 3 | outcome |
| --- | --- | --- | --- | --- |
| OLA1 (GeneID 29789) | 0.352 | 2.22 | 0.906 | inactive |
| POLR3G (GeneID 10622) | 0.38 | 1.83 | 1.36 | inactive |
| ERVFRD-1 (GeneID 405754) | 1.41 | 1.6 | 2.69 | inactive |
| AP5S1 (GeneID 55317) | -0.944 | 1.33 | 0.0494 | inactive |
| RNF138 (GeneID 51444) | 0.834 | 1.09 | 1.57 | inactive |
| ATG9A (GeneID 79065) | 0.973 | 0.728 | 1.14 | inactive |
| LOC389055 (retired record) (GeneID 389055) | 0.529 | 0.434 | 0.18 | inactive |
| MTERF4 (GeneID 130916) | -1.14 | 0.176 | -0.418 | inactive |
| PCDHA2 (GeneID 56146) | -0.00937 | 0.0834 | -0.458 | inactive |
| LOC441769 (retired record) (GeneID 441769) | -0.189 | -0.334 | 0.0835 | inactive |
| ZSCAN5B (GeneID 342933) | -0.523 | -0.506 | -0.376 | inactive |
| FAM13A (GeneID 10144) | 0.37 | -0.603 | -0.147 | inactive |
| CCAR2 (GeneID 57805) | -0.738 | -0.658 | 0.361 | inactive |
| SUCNR1 (GeneID 56670) | 1.08 | -0.732 | 1.81 | inactive |
